Drawing on the supplement of paper PMC6411743, this text covers NP40-soluble protein abundance for 16 targets.

Sequences of proteins named here, by UniProt entry; tags and fusion partners are left off. A change or cut given only in a name is not applied to a line headed by its entry.
UniProt Q9NYP9: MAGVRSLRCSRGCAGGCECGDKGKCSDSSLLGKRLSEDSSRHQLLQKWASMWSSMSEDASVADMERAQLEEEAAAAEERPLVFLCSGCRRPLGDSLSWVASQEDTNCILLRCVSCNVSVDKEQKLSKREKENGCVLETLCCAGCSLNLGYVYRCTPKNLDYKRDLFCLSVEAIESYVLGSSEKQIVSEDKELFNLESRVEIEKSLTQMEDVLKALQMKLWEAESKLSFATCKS
UniProt Q9NVH2, whole entry: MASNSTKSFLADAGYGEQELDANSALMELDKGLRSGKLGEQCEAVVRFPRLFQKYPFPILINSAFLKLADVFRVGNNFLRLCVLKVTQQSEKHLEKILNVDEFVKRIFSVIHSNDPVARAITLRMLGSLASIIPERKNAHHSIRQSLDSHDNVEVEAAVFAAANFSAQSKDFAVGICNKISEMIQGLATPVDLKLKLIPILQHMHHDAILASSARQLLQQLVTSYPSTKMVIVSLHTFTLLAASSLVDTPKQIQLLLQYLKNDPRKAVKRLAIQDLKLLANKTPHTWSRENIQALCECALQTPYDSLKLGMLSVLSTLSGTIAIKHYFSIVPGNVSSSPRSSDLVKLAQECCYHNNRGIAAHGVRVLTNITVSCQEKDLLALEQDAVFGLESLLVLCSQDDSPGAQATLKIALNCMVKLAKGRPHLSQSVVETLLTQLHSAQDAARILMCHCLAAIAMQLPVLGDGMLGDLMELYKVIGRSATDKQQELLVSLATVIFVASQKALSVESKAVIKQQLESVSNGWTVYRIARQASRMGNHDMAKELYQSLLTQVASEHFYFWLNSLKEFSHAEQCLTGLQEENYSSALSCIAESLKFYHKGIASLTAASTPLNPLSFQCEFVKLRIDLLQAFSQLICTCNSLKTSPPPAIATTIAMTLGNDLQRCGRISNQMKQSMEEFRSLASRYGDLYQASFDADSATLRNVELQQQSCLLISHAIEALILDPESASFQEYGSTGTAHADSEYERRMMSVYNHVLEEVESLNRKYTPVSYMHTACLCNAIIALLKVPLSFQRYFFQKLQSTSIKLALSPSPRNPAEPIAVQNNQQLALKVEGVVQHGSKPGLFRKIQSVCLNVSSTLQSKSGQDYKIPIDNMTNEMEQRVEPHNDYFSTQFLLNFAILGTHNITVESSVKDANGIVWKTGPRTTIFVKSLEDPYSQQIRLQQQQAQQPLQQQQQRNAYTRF
UniProt Q9UK59: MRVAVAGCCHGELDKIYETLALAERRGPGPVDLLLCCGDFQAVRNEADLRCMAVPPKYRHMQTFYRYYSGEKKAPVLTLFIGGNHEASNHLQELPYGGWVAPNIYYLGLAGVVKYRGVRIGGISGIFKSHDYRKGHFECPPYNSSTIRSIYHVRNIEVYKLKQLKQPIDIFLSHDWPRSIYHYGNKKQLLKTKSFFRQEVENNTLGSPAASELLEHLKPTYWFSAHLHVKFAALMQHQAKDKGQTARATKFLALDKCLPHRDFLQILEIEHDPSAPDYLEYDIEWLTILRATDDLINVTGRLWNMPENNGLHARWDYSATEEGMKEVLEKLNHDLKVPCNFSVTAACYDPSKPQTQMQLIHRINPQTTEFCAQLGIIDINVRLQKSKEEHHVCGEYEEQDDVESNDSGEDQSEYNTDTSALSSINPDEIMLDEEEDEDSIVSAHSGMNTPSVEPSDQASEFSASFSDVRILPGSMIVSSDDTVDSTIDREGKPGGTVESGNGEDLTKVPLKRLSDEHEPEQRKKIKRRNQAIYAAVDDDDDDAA
UniProt Q9NY33: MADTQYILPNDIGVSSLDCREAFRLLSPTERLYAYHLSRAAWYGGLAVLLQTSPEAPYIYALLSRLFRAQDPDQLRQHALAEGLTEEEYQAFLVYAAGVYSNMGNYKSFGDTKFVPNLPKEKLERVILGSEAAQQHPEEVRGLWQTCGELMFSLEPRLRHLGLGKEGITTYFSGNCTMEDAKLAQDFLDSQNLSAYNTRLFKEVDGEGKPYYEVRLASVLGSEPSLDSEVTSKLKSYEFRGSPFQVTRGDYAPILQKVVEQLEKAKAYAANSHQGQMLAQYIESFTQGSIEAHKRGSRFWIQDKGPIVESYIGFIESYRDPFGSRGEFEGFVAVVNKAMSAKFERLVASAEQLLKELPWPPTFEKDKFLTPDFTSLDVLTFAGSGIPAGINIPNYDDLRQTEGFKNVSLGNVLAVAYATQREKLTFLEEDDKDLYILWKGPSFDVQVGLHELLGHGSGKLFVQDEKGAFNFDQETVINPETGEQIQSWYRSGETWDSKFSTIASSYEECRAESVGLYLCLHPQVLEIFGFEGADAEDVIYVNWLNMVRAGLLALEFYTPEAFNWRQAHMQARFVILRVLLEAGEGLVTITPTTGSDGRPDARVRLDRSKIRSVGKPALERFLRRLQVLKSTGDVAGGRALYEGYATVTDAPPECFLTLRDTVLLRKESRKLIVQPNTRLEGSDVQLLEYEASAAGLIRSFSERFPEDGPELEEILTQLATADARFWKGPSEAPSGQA
UniProt Q9NYU2: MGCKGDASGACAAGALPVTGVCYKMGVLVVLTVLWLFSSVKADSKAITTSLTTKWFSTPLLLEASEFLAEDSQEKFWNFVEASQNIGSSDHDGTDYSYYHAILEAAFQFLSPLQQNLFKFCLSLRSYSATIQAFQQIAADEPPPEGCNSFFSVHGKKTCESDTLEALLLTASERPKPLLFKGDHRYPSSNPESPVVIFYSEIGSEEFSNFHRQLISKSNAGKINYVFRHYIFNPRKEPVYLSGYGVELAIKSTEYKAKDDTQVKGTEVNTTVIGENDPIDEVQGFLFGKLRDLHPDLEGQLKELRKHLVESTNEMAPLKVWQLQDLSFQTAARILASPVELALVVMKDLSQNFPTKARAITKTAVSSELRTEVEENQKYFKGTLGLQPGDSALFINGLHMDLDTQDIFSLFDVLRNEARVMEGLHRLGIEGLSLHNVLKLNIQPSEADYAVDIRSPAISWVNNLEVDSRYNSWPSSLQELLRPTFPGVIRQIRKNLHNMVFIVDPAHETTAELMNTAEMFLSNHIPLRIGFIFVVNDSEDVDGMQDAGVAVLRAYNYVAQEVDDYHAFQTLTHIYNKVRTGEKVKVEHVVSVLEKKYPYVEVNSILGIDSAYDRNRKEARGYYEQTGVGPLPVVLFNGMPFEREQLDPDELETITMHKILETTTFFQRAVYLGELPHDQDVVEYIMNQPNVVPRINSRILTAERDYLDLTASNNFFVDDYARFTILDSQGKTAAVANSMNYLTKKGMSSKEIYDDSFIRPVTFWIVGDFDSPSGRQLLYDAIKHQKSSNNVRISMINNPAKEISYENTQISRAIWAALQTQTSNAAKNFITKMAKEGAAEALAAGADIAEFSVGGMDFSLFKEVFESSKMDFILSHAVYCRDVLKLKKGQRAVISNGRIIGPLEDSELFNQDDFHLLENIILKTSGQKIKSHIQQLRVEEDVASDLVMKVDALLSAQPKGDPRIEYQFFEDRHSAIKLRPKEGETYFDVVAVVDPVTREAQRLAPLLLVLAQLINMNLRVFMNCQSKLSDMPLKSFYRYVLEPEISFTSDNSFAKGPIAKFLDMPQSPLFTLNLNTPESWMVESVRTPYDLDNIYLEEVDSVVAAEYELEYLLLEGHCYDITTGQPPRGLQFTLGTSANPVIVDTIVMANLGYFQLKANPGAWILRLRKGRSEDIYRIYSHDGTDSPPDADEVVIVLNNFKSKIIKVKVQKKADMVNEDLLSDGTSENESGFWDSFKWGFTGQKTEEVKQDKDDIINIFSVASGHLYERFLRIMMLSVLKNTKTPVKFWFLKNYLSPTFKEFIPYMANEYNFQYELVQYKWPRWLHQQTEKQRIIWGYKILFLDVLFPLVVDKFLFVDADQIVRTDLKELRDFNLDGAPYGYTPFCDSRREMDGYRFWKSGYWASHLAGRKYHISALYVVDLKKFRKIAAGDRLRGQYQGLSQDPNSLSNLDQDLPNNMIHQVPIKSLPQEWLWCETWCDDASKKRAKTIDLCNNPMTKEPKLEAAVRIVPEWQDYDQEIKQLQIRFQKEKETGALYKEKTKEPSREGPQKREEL
UniProt Q9UDY2: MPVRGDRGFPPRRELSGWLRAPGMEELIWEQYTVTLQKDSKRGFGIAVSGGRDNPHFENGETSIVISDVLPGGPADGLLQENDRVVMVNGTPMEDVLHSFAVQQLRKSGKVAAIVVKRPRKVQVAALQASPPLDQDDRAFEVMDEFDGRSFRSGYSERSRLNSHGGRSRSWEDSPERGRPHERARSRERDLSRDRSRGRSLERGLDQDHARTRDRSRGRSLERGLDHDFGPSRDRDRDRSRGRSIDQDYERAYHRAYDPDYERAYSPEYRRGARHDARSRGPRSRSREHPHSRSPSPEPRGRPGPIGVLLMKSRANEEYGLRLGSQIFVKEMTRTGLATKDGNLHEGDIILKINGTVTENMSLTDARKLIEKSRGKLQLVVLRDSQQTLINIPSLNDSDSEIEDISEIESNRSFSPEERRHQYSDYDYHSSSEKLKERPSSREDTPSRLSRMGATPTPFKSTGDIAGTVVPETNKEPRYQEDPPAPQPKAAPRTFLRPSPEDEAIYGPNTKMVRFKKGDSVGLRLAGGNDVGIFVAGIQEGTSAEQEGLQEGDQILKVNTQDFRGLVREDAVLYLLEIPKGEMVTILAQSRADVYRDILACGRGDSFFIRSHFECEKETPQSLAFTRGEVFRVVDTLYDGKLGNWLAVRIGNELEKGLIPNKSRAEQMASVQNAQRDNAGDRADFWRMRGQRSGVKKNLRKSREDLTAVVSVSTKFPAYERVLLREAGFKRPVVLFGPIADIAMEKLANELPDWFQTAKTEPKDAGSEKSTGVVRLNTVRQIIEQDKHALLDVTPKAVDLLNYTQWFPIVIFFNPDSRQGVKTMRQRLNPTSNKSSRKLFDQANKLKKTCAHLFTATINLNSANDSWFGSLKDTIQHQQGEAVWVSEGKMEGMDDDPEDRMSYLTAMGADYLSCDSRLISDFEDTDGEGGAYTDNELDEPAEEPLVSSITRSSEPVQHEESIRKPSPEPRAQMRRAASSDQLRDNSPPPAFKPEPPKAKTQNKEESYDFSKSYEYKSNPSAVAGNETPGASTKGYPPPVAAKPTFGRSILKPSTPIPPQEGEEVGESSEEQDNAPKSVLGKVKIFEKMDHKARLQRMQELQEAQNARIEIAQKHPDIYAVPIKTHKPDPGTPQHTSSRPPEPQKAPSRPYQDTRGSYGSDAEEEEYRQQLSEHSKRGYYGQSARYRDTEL
UniProt Q9P215: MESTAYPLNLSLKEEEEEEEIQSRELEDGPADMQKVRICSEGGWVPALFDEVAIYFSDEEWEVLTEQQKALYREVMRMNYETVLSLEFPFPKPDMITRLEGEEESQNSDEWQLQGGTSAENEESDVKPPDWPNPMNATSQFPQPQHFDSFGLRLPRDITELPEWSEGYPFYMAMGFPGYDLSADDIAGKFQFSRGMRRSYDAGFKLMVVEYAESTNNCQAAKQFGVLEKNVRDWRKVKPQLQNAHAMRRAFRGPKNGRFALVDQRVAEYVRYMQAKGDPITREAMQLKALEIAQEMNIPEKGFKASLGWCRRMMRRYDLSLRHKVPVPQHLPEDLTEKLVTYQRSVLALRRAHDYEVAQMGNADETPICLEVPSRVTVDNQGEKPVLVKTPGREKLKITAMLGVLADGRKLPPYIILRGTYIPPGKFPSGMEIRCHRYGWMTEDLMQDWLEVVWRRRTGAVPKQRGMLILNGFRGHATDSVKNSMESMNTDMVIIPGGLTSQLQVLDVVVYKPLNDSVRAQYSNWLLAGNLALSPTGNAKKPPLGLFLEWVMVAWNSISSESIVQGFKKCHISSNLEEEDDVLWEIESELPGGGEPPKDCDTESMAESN
UniProt Q9UJU2, whole entry: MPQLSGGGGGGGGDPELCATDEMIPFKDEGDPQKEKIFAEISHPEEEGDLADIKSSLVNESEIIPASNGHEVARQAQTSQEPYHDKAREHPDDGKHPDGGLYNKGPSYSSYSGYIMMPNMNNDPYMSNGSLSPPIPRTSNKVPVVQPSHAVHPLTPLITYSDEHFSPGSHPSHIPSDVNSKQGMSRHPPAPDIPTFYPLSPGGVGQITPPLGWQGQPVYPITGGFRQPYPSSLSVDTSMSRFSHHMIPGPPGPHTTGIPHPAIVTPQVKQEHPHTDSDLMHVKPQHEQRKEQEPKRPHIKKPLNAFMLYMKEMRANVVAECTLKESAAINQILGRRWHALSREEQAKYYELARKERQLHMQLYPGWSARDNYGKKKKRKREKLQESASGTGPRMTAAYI
UniProt Q9P016: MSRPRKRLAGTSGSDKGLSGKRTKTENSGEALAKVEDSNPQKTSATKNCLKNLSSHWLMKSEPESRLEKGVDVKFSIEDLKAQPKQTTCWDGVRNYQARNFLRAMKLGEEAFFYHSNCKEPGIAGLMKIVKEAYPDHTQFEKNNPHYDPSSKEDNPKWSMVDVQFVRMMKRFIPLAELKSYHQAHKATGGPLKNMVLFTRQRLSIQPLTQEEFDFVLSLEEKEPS

± gives the standard deviation of the averaged measurements. The list shows a part of the results.

Compound in the assay: Nc1nc2c(ncn2[C@@H]2O[C@H](COP(=O)(O)OP(=O)(O)OP(=O)(O)O)[C@@H](O)[C@H]2O)c(=O)[nH]1 [guanosine triphosphate]
Put plainly: NP40-soluble protein abundance relative to vehicle (solubility fold change) (ratio); higher = more soluble protein in presence of GTP. In outline: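 Jurkat crude lysate (Dounce-homogenised) was treated with eight concentrations from 0.1 to 10 mM for 10 min at room temperature, then 3 min at 37 °C. It was solubilised with 0.8% NP40 and benzonase (60 min, 4 °C) and ultracentrifuged, and the supernatant was TMT-labelled for LC-MS/MS. Intensities were vsn-normalised, and the value is the fold change against the NP40-processed vehicle per replicate, from three independent experiments.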

Turning to WARS2 (UniProt Q9UGM6), the NP40-soluble protein abundance (concentration: 0.1mM) was determined as 1.02 ± 0.056; the NP40-soluble protein abundance (concentration: 0.5mM) came to 0.974 ± 0.039; the NP40-soluble protein abundance (concentration: 1mM) came to 1.06 ± 0.041; the NP40-soluble protein abundance (concentration: 2mM) stood at 1.01 ± 0.018; the NP40-soluble protein abundance (concentration: 4mM) was determined as 1.01 ± 0.031; the NP40-soluble protein abundance (concentration: 6mM) turned out to be 0.979 ± 0.038. The NP40-soluble protein abundance (concentration: 8mM) turned out to be 1.05 ± 0.03 and the NP40-soluble protein abundance (concentration: 10mM) was found to be 0.992 ± 0.021.

Take UniProt Q9NYP9: the NP40-soluble protein abundance was determined as 0.995 ± 0.047 (concentration: 0.1mM); 1.02 ± 0.028 (concentration: 0.5mM); 0.935 ± 0.053 (concentration: 1mM); 0.944 ± 0.027 (concentration: 2mM); 0.907 ± 0.035 (concentration: 4mM); 0.956 ± 0.03 (concentration: 6mM). The NP40-soluble protein abundance (concentration: 8mM) came out at 0.949 ± 0.052 and the NP40-soluble protein abundance (concentration: 10mM) is 0.948 ± 0.088.

UniProt Q9UDT6 and related entries: the NP40-soluble protein abundance was 1.09 ± 0.23 (concentration: 0.1mM); 1.05 ± 0.08 (concentration: 0.5mM); 1.15 ± 0.23 (concentration: 1mM); 1.12 ± 0.13 (concentration: 2mM); 1.1 ± 0.18 (concentration: 4mM); 1.16 ± 0.089 (concentration: 6mM). In addition, the NP40-soluble protein abundance reads like this: (concentration: 8mM) 1.14 ± 0.2; (concentration: 10mM) 1.13 ± 0.17.

Regarding UniProt Q9NVH2 and related entries, the NP40-soluble protein abundance runs as follows: (concentration: 0.1mM) 1.09 ± 0.051; (concentration: 0.5mM) 1.01 ± 0.046; (concentration: 1mM) 1.09 ± 0.09; (concentration: 2mM) 1.13 ± 0.14; (concentration: 4mM) 1.2 ± 0.13; (concentration: 6mM) 1.15 ± 0.15. Also, the NP40-soluble protein abundance reads like this: (concentration: 8mM) 1.18 ± 0.15; (concentration: 10mM) 1.16 ± 0.14.

Regarding DBR1 (UniProt Q9UK59), the NP40-soluble protein abundance (concentration: 0.1mM) is 1.02 ± 0.048; the NP40-soluble protein abundance (concentration: 0.5mM) was found to be 1.11 ± 0.079; the NP40-soluble protein abundance (concentration: 1mM) amounted to 0.966 ± 0.053; the NP40-soluble protein abundance (concentration: 2mM) is 1.01 ± 0.098; the NP40-soluble protein abundance (concentration: 4mM) amounted to 0.951 ± 0.057; the NP40-soluble protein abundance (concentration: 6mM) worked out at 0.966 ± 0.061. Moreover, the NP40-soluble protein abundance by setting is: (concentration: 8mM) 0.949 ± 0.044; (concentration: 10mM) 0.93 ± 0.054.

As to DPP3 (UniProt Q9NY33), the NP40-soluble protein abundance (concentration: 0.1mM) was 1 ± 0.02; the NP40-soluble protein abundance (concentration: 0.5mM) stood at 0.977 ± 0.023; the NP40-soluble protein abundance (concentration: 1mM) is 0.921 ± 0.035; the NP40-soluble protein abundance (concentration: 2mM) was found to be 0.9018 ± 0.009; the NP40-soluble protein abundance (concentration: 4mM) is 0.9 ± 0.021; the NP40-soluble protein abundance (concentration: 6mM) worked out at 0.889 ± 0.013. The NP40-soluble protein abundance by setting is: (concentration: 8mM) 0.853 ± 0.042; (concentration: 10mM) 0.846 ± 0.063.

In the case of UniProt Q9ULL5-3, the NP40-soluble protein abundance (concentration: 0.1mM) stood at 1.11 ± 0.1; the NP40-soluble protein abundance (concentration: 0.5mM) turned out to be 1.08 ± 0.094; the NP40-soluble protein abundance (concentration: 1mM) is 1.07 ± 0.099; the NP40-soluble protein abundance (concentration: 2mM) stood at 1.01 ± 0.092; the NP40-soluble protein abundance (concentration: 4mM) came out at 1 ± 0.11; the NP40-soluble protein abundance (concentration: 6mM) was found to be 1.02 ± 0.092. In addition, the NP40-soluble protein abundance reads like this: (concentration: 8mM) 1.03 ± 0.068; (concentration: 10mM) 1.04 ± 0.074.

On to UniProt Q9NYU2 and related entries, for which the NP40-soluble protein abundance by setting is: (concentration: 0.1mM) 1 ± 0.013; (concentration: 0.5mM) 1.04 ± 0.05; (concentration: 1mM) 0.956 ± 0.014; (concentration: 2mM) 0.955 ± 0.043; (concentration: 4mM) 0.942 ± 0.023; (concentration: 6mM) 0.951 ± 0.028. Further, the NP40-soluble protein abundance reads like this: (concentration: 8mM) 0.9104 ± 0.008; (concentration: 10mM) 0.885 ± 0.035.

Consider UniProt Q9NX47, for which the NP40-soluble protein abundance amounted to 0.989 ± 0.058 (concentration: 0.1mM); 1.05 ± 0.099 (concentration: 0.5mM); 0.964 ± 0.13 (concentration: 1mM); 0.901 ± 0.052 (concentration: 2mM); 0.947 ± 0.061 (concentration: 4mM); 1.01 ± 0.11 (concentration: 6mM). For the same target, the NP40-soluble protein abundance runs as follows: (concentration: 8mM) 0.8561 ± 0.0048; (concentration: 10mM) 0.8842 ± 0.0023.

UniProt Q9ULC4 and related entries: the NP40-soluble protein abundance (concentration: 0.1mM) is 0.995 ± 0.034; the NP40-soluble protein abundance (concentration: 0.5mM) is 0.986 ± 0.018; the NP40-soluble protein abundance (concentration: 1mM) is 0.904 ± 0.04; the NP40-soluble protein abundance (concentration: 2mM) was determined as 0.901 ± 0.05; the NP40-soluble protein abundance (concentration: 4mM) stood at 0.891 ± 0.064; the NP40-soluble protein abundance (concentration: 6mM) stood at 0.865 ± 0.032. Further, the NP40-soluble protein abundance by setting is: (concentration: 8mM) 0.858 ± 0.076; (concentration: 10mM) 0.854 ± 0.063.

In the case of UBQLN2 (UniProt Q9UHD9), the NP40-soluble protein abundance is, setting by setting: (concentration: 0.1mM) 1.01 ± 0.14; (concentration: 0.5mM) 0.99 ± 0.052; (concentration: 1mM) 1.07 ± 0.13; (concentration: 2mM) 1.05 ± 0.051; (concentration: 4mM) 0.99 ± 0.073; (concentration: 6mM) 1.01 ± 0.057. The NP40-soluble protein abundance is, setting by setting: (concentration: 8mM) 0.985 ± 0.11; (concentration: 10mM) 1 ± 0.079.

As to UniProt Q9P0U4 and related entries, the NP40-soluble protein abundance came out at 1.03 ± 0.031 (concentration: 0.1mM); 1.08 ± 0.072 (concentration: 0.5mM); 1.046 ± 0.0026 (concentration: 1mM); 1.1 ± 0.078 (concentration: 2mM); 1.09 ± 0.02 (concentration: 4mM); 1.09 ± 0.089 (concentration: 6mM). The NP40-soluble protein abundance was determined as 1.1 ± 0.052 (concentration: 8mM) and 1.07 ± 0.029 (concentration: 10mM).

With UniProt Q9UDY2 and related entries, the NP40-soluble protein abundance by setting is: (concentration: 0.1mM) 1.15 ± 0.083; (concentration: 0.5mM) 1.02 ± 0.02; (concentration: 1mM) 1.05 ± 0.051; (concentration: 2mM) 1.05 ± 0.11; (concentration: 4mM) 1 ± 0.2; (concentration: 6mM) 0.9861 ± 0.0071. Moreover, the NP40-soluble protein abundance (concentration: 8mM) is 1.08 ± 0.021 and the NP40-soluble protein abundance (concentration: 10mM) is 1.04 ± 0.16.

On to POGK (UniProt Q9P215), for which the NP40-soluble protein abundance (concentration: 0.1mM) is 1.18 ± 0.16; the NP40-soluble protein abundance (concentration: 0.5mM) came out at 1.018 ± 0.0049; the NP40-soluble protein abundance (concentration: 1mM) amounted to 1.13 ± 0.095; the NP40-soluble protein abundance (concentration: 2mM) was 1.03 ± 0.054; the NP40-soluble protein abundance (concentration: 4mM) was determined as 1 ± 0.023; the NP40-soluble protein abundance (concentration: 6mM) amounted to 1.06 ± 0.084. For the same target, the NP40-soluble protein abundance reads like this: (concentration: 8mM) 1.03 ± 0.054; (concentration: 10mM) 0.965 ± 0.035.

In the case of UniProt Q9UJU2 and related entries, the NP40-soluble protein abundance is 0.892 ± 0.033 (concentration: 0.1mM); 0.88 ± 0.011 (concentration: 0.5mM); 0.978 ± 0.053 (concentration: 1mM); 0.962 ± 0.054 (concentration: 2mM); 0.938 ± 0.092 (concentration: 4mM); 0.944 ± 0.079 (concentration: 6mM). Also, the NP40-soluble protein abundance is 0.99 ± 0.077 (concentration: 8mM) and 1.08 ± 0.092 (concentration: 10mM).

Regarding THYN1 (UniProt Q9P016), the NP40-soluble protein abundance is 0.869 ± 0.068 (concentration: 0.1mM); 0.838 ± 0.021 (concentration: 0.5mM); 1.01 ± 0.085 (concentration: 1mM); 1.06 ± 0.012 (concentration: 2mM); 1.12 ± 0.043 (concentration: 4mM); 1.1 ± 0.034 (concentration: 6mM). Also, the NP40-soluble protein abundance reads like this: (concentration: 8mM) 1.08 ± 0.11; (concentration: 10mM) 1.23 ± 0.058.
